Results from PubChem BioAssay AID540303 (National Center for Advancing Translational Sciences (NCATS), 2011).
About 1,000 (0.3%) of roughly 330,000 compounds were called active. This list was built around the results that the source calls inconclusive (neither active nor inactive); the mix of calls is not that of the screen. Calls come from the whole dose curve; as a rule, active = well fitted inhibition curve with a large enough effect; inconclusive = small, poorly fitted or top-dose-only effect; inactive = no such curve, though single readings can be large or run the other way; tested in mouse RAW 264.7 cells. A potency beside an inconclusive call is a rough fit, not a confirmed value.

test: qHTS for Inhibitors of Cell Surface uPA Generation; details: cell surface uPA generation assay; series mostly up to 38.3 µM; activity change, negative = inhibition: at the top concentration; note: nearly all actives have a fitted effect of over 55% in size
How it was run: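 Validation set in qHTS format. RAW 264.7 cells were pre-plated overnight and then exposed to compounds (up to 38.3 uM final) for 24 h at 37 C in 5% CO2, followed by a luminescent ATP-Lite measurement.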
% is set by controls: 0 for no effect and ±100 for the full control effect; potency is the fitted concentration of half-maximal effect.

Structure (SMILES) | Potency | activity change, negative = inhibition
COc1ccc(-c2cc(C(=O)N(C)CC(=O)Nc3cccc(F)c3)c3ccccc3n2)cc1 | inconclusive: 5.62 µM [inhibitor, partial curve] | –
COc1ccc(-c2csc(N3CCSCC3)n2)cc1 | – | inactive: 0.345%
CC(C)[C@H](CO)Nc1nc(NCc2ccc(S(N)(=O)=O)cc2)c2ncn(C(C)C)c2n1 | – | inactive: 7.87%
CC1=C(C(=O)Nc2cccc(C(=O)NC3CCCC(C)C3C)c2)SCCO1 (stereo unspecified) | inconclusive: 1.26 µM [inhibitor, partial curve, poor fit] | –
Cc1cc(C)c(NC(=O)CNC(=O)COC(=O)Cc2cccs2)c(C)c1 | – | inactive: -3.62%
O=C(Nc1ccccn1)c1onc2c1CCCC2 | – | inactive: -5.56%
CCN(CC(=O)NCc1ccc(F)cc1)C(=O)COc1ccccc1[N+](=O)[O-] | inconclusive: 31.6 µM [inhibitor, single point] | –
O=C(OCCCN1CCOCC1)c1ccc(O)c(O)c1 | inconclusive: 11.2 µM [inhibitor, partial curve, poor fit] | –
Cc1cccc(-c2cccc(NC(=O)C3CCCN(Cc4cccnc4)C3)c2)c1 (stereo unspecified) | inconclusive: 5.01 µM [inhibitor, partial curve, poor fit] | –
CC(C)OCCCn1c(SC(C)C(=O)NCC2CCCO2)nc2cc(Cl)ccc2c1=O (stereo unspecified) | inconclusive: 1.58 µM [inhibitor, full curve, poor fit] | –
COc1ccc(CNc2ccc3c(c2)ncn3C)cc1OC | – | inactive: -12.6%
COc1cc(C(=O)Oc2c(CN3CCOCC3)cc(Cl)c3cccnc23)cc(OC)c1OC | inconclusive: 20 µM [inhibitor, single point] | –
CC(C)n1cnc2c(Nc3cccc(Cl)c3)nc(NCCCO)nc21 | inconclusive: 8.91 µM [inhibitor, single point] | –
Cc1c(C(=O)N2CCC(C)CC2)oc2ccc3c(c12)C(O)CC1(CCCCC1)O3 (stereo unspecified) | inconclusive: 7.08 µM [inhibitor, partial curve, poor fit] | –
CCOc1ccc(NC(=O)c2cc3ccccc3cc2O)cc1 | inconclusive: 3.98 µM [inhibitor, single point] | –
O=C(COc1cccc(C(F)(F)F)c1)Nc1cccc(S(=O)(=O)NC2=NCCCCC2)c1 | inconclusive: 11.2 µM [inhibitor, single point] | –
c1ccc(CNc2c(-c3cccc(SC4CCCCC4)c3)nc3ccccn23)cc1 | inconclusive: 1.41 µM [inhibitor, full curve, poor fit] | –
COc1ccc(-n2cc(-c3ccccc3)c3c(=S)nc[nH]c32)cc1 | inconclusive: 12.6 µM [inhibitor, single point] | –
CCN(c1ccccc1)S(=O)(=O)c1ccc(Cl)c(NC(=O)CN2C(=O)NC3(CCCC3)C2=O)c1 | inconclusive: 2.82 µM [inhibitor, partial curve] | –
COc1ccc(C(=O)/C=C/c2ccccc2)c(OC)c1 | inconclusive: 10 µM [inhibitor, partial curve, poor fit] | –
COc1cc2c(-c3ccc4cc[nH]c4c3)c(-c3ccc(C#N)cc3)oc(=O)c2cc1OC | inconclusive: 1 µM [inhibitor, full curve, poor fit] | –
CN1C(=O)C(O)(CC(=O)/C=C/c2ccco2)c2cc(Br)ccc21 (stereo unspecified) | inconclusive: 12.6 µM [inhibitor, single point] | –

In a second layout: 4 of the compounds above.
Structure (SMILES),Potency,"activity change, negative = inhibition"
CC(C)[C@H](CO)Nc1nc(NCc2ccc(S(N)(=O)=O)cc2)c2ncn(C(C)C)c2n1,–,inactive: 7.87%
CC1=C(C(=O)Nc2cccc(C(=O)NC3CCCC(C)C3C)c2)SCCO1 (stereo unspecified),"inconclusive: 1.26 µM [inhibitor, partial curve, poor fit]",–
Cc1cc(C)c(NC(=O)CNC(=O)COC(=O)Cc2cccs2)c(C)c1,–,inactive: -3.62%
O=C(Nc1ccccn1)c1onc2c1CCCC2,–,inactive: -5.56%

Copied from above (2 entries):
Structure (SMILES) | Potency | activity change, negative = inhibition
CC(C)[C@H](CO)Nc1nc(NCc2ccc(S(N)(=O)=O)cc2)c2ncn(C(C)C)c2n1 | – | inactive: 7.87%
CC1=C(C(=O)Nc2cccc(C(=O)NC3CCCC(C)C3C)c2)SCCO1 (stereo unspecified) | inconclusive: 1.26 µM [inhibitor, partial curve, poor fit] | –

Remaining list, next part

Structure (SMILES) | Potency | activity change, negative = inhibition
COc1cccc([C@@H]2Oc3ccc(Br)cc3C(=O)[C@H]2OC(=O)NC2CCCC2)c1 | inconclusive: 22.4 µM [inhibitor, single point] | –
O=C(Cc1ccc(F)cc1)N1CCC(CC2CC(c3ccc(Cl)cc3)=NO2)(C(=O)NCC2CCCCC2)CC1 (stereo unspecified) | inconclusive: 5.62 µM [inhibitor, partial curve, poor fit] | –
COc1ccc(C(=O)c2c3ccc([N+](=O)[O-])cc3[n+]([O-])n2CCCN)cc1 | active: 0.794 µM | –
Cc1cc(C)n(CCC(=O)N/N=C/c2c(O)ccc3ccccc23)n1 | inconclusive: 8.91 µM [inhibitor, single point] | –
Cc1ccc(CNC(=O)COC(=O)c2ccc(Br)o2)cc1 | inconclusive: 3.16 µM [inhibitor, partial curve, poor fit] | –
COc1ccc(NC(=S)NC(C)C(c2ccccc2)N2CCOCC2)cc1 (stereo unspecified) | – | inactive: 5.01%
Cc1cccc(C(=O)Nc2ccc(S(=O)(=O)Nc3nc(C)cc(C)n3)cc2)c1 | inconclusive: 0.501 µM [inhibitor, full curve, poor fit] | –
COc1cc(/C=N/NC(=O)c2[nH]nc3c2CCc2ccccc2-3)ccc1O | inconclusive: 11.2 µM [inhibitor, single point] | –
O=C(CSc1nnc(NC(=O)c2ccccc2)s1)NCc1ccco1 | – | inactive: -17.2%
COc1cccc(OC)c1C1=CC(=O)C[C@H](c2ccc3c(c2)OCO3)C1 | inconclusive: 12.6 µM [inhibitor, partial curve, poor fit] | –
COc1ccc(C)cc1Nc1cc(C)nc2nc(C)nn12 | inconclusive: 12.6 µM [inhibitor, partial curve, poor fit] | –
CCOc1ccc2nc(N3CCCC(C(=O)N4CCN(CC)CC4)C3)sc2c1 (stereo unspecified) | inconclusive: 10 µM [inhibitor, partial curve, poor fit] | –
O=C(Nc1cccc2ccccc12)c1ccc([N+](=O)[O-])s1 | active: 11.2 µM | –
O=C(NCc1ccco1)C1CC(c2ccc(Cl)c(Cl)c2)=NO1 (stereo unspecified) | inconclusive: 10 µM [inhibitor, single point] | –
COc1ccc2c(c1)CCC1C2=NN(/C(C)=C\C(C)=O)C1c1ccc(F)cc1 (stereo unspecified) | inconclusive: 17.8 µM [inhibitor, single point] | –
Cc1ccc(C)n1-c1ccc(C(=O)Nc2ccccc2F)cc1 | – | inactive: -1.94%
Cc1c(NC(=O)C2CC(c3c(F)cccc3Cl)=NO2)c(=O)n(-c2ccccc2)n1C (stereo unspecified) | – | inactive: 7.61%
COc1ccc(/C=C/C(=O)Oc2ccc(C)c(C)c2)cc1OC | – | inactive: -6.33%
CC(C)CCc1noc(CN(C)CCC2CCOCC2)n1 | – | inactive: -3.14%
CC(=O)Nc1ccc(NC(=O)C(C)OC(=O)/C(C#N)=C/c2ccc(N(C)C)cc2)cc1 (stereo unspecified) | – | inactive: 1.24%
O=c1[nH]nc2c3ccccc3cnn12 | – | inactive: 0.668%
OCc1ccc2c(c1)c(-c1ccc3c(c1)OCCO3)c(-c1ccccc1)n2-c1ccccc1 | inconclusive: 12.6 µM [inhibitor, partial curve, poor fit] | –

Structure (SMILES) | Potency | activity change, negative = inhibition
O=C(N/N=C/c1c[nH]c2ccccc12)c1[nH]c2ccc(Br)cc2c1-c1ccccc1 | inconclusive: 1 µM [inhibitor, full curve, poor fit] | –
CC(=O)Nc1ccc(S(=O)(=O)NCCC(=O)Nc2ccc(C)cn2)cc1 | – | inactive: 1.06%
CCN(CC)Cc1c(O)ccc2c1O/C(=C\C=C\c1ccccc1)C2=O | – | inactive: -10.9%
COC(=O)c1cccc(NC(=S)NCc2ccc(Cl)cc2)c1 | – | inactive: 2.08%
Cc1ccc2nc(SCC(=O)Nc3ccc4c(c3)CCC4)[nH]c2c1 | – | inactive: -0.762%
CCN(CC)C(=O)[C@H]1C[C@H](CC(=O)NCC23CC4CC(CC(C4)C2)C3)C(=O)N2CCc3c([nH]c4ccc(Cl)cc34)[C@]12C | inconclusive: 28.2 µM [inhibitor, single point] | –
CC1=CC(=O)c2ccccc2C1=O | inactive | –
Cn1c(=O)n(CC(=O)NC2CCCCC2)c(=O)c2ccccc21 | – | inactive: 8.72%
Cc1ccc(NCCC(=O)c2cccs2)cc1 | inconclusive: 11.2 µM [inhibitor, partial curve, poor fit] | –
COc1cc(C(=O)Nc2ccccc2C(=O)Nc2ccccn2)cc(OC)c1OC | inconclusive: 7.08 µM [inhibitor, partial curve, poor fit] | –
Cc1cccc2c(N)c3c(nc12)CCCC3 (tested in a mixture with another compound) | inconclusive: 14.1 µM [inhibitor, single point] | –
Cc1[nH]n(-c2ccccc2)c(=O)c1/C=N/NC(=O)COc1ccccc1[N+](=O)[O-] | inconclusive: 25.1 µM [inhibitor, single point] | –
C[C@]12C(=O)N(c3ccccc3)C(=O)N1[C@@H]1c3ccccc3OC[C@@H]1[C@H]2c1ccccc1 | – | inactive: 5.64%
O=C(O)/C=C\C(=O)Nc1ccccc1N1CCN(c2ccccc2)CC1 | inconclusive: 12.6 µM [inhibitor, partial curve, poor fit] | –
Cc1ccc(S(=O)(=O)NCCC(=O)NCCSc2ccc(Br)cc2)cc1 | inconclusive: 5.62 µM [inhibitor, full curve, poor fit] | –
Cc1cc(C)c(NC(=O)c2cccc(NC(=O)c3ccco3)c2)c(C)c1 | inconclusive: 1.58 µM [inhibitor, single point] | –
COc1ccc(N(CC(=O)Nc2ccccc2OC)S(=O)(=O)c2ccccc2)cc1Cl | inconclusive: 3.16 µM [inhibitor, partial curve] | –
COc1ccc(N2CCN(CC(=O)Nc3cc(C)cc(C)c3)CC2)cc1 | inconclusive: 12.6 µM [inhibitor, single point] | –
O=C(O)c1cccc(Nc2cc(Cl)c3nonc3c2[N+](=O)[O-])c1 | – | inactive: 8.6%
NNC(=O)/C(=C\c1ccco1)NC(=O)c1ccco1 | inconclusive: 12.6 µM [inhibitor, single point] | –
O=C(C1=C[C@@H](C2CCCCC2)C[C@@H](OCc2ccc(CO)cc2)O1)N1CCN(Cc2ccccc2)CC1 | inconclusive: 20 µM [inhibitor, single point] | –
Cc1ccccc1NC(=O)CN(C)S(=O)(=O)c1cccs1 | inconclusive: 2.82 µM [inhibitor, single point] | –
